Assay results: patent publication US20110045092A1, “CASEIN […] ENCAPSULATING […] ACTIVE AGENTS AND USES THEREOF” (priority 2008, published 2011)
Where a name gives a salt, the structure may show the parent alone. At least one structure is not confirmed: it was looked up by name or label, or the drawing left a doubt.

How the values were obtained:
Zeta potential analysis = format: physicochemical; conditions: concentration range studied; PBS pH 7.0
Experimental: Particle size distribution, mean Gaussian diameter, and zeta potential were determined by a combined dynamic light scattering (DLS) and zeta potential analyzer (NICOMP 380, Particle Sizing Systems (Agilent Technologies, Inc.), Santa Barbara, Calif., USA) at 25° C.
Zeta potential was measured in PBS solutions without NaCl, under a 3 V/cm e-field, using phase analysis mode. The zeta potential was calculated from the electrophoretic mobility (EM) using the Smoluchowski model (which is a reasonable approximation given that the radius of the particles (a) was around 125 nm, and the ionic strength during the EM measurement was calculated to be about 50 mM, i.e. the Debye length (κ^−1) was around 1.4 nm, so that the product κ^−1a=92>>1).

β-CN [1] = molecular target: T1, β-CN (Bos taurus, UniProt P02666); assay: Mitoxantrone fluorescence quenching by β-CN; format: binding, bovine
T1 construct: β-CN from bovine milk (C6905, purity 90%); purchased Sigma-Aldrich Israel Ltd. C6905; host or cells: bovine milk
T1 sequence (P02666 16-224): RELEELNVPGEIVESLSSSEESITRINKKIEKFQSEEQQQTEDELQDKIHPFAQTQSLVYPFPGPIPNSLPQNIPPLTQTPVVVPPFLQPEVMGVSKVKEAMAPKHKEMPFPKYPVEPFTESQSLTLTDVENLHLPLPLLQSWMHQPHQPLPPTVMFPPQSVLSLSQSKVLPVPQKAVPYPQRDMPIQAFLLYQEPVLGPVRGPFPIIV
Experimental: The β-CN-mitoxantrone interaction was further studied by monitoring the changes in the mitoxantrone fluorescence emission upon addition of β-CN. For this purpose a 3-D fluorescence spectra analysis of mitoxantrone was performed using the Fluorolog 3-22. Mitoxantrone fluorescence emission was measured using 609 nm and 675 nm excitation and emission, respectively, and slit widths of 1 nm. Intrinsic fluorescence of 42 μM mitoxantrone was measured before and after addition of different amounts of β-CN. The β-CN concentration range was 0.1-3.8 mg/ml. The apparent dissociation constant and the number of β-CN molecules bound per mitoxantrone molecule were calculated from plots of the fluorescence intensity at 675 nm expressed as the percentage of the fluorescence of the β-CN-free mitoxantrone vs. the added β-CN concentration. Data were analyzed as detailed herein above for Trp quenching.

β-CN [2] = molecular target: T1, β-CN; assay: Trp 143 fluorescence quenching of β-CN by drug; format: binding, bovine; conditions: for observed stoichiometric binding ratio: from both fluorescence quenching analyses (Table 1), dihydrochloride
Experimental: Tryptophan (Trp) Fluorescence:
Trp 143 is located in the main hydrophobic domain of β-CN. Quenching of protein fluorescence due to energy transfer from this Trp residue to a bound ligand serves to determine the binding affinity.
β-CN-drug interaction was studied by monitoring the changes in the Trp fluorescence emission of β-CN upon addition of the drug. Trp fluorescence was determined using an excitation at 287 nm and emission was detected at 332 nm, with slit widths of 1 nm, using the Fluorolog 3-22 spectrofluoreineter. Intrinsic fluorescence of the Trp residues of β-CN was measured before and after addition of different amounts of each drug ranging between drug: β-CN molar ratio of 0.2:1 to 12:1 at 1 mg/ml β-CN. Changes in Trp fluorescence were used to evaluate the binding of the drug to β-CN. The apparent dissociation constant and the number of drug molecules that are involved in binding of one β-CN molecule were calculated from plots of the fluorescence intensity at 332 nm, expressed as the percentage of the fluorescence of the drug-free β-CN vs. the added drug concentration. The data was analyzed using Matlab (MathWorks), by means of the following equations: […]
where F is the fluorescence intensity at a given added ligand (drug) concentration; F0 the fluorescence intensity at the beginning of the titration; F1 the fluorescence at the end of the titration; [PF] the concentration of the free β-CN; [LF] the concentration of the free ligand, drug; [PL] the concentration of the β-CN-drug complex; Kd and Ka are the dissociation and association constants respectively (Christiaenset al. 2002 European Journal of Biochemistry 269 [12]:2918-2926).
Emission spectra of pure 1 mg/ml β-CN vs. those of drug encapsulated in 1mg/ml at 4:1 drug: β-CN molar ratio, were collected at Trp excitation wavelength 287 nm, using the Fluorolog 3-22 spectrofluorometer.

## O=C1c2c(O)ccc(O)c2C(=O)c2c(NCCNCCO)ccc(NCCNCCO)c21 [mitoxantrone, Mitoxantrone dihydrochloride]
Zeta potential analysis
  zeta potential of drug in PBS without β-CN: close to zero
β-CN [1]; from mitoxantrone fluorescence quenching
  Calculated mitoxantrone:β-CN molar ratio: 2.22 ± 0.39
β-CN [1]; β-CN molecules per mitoxantrone molecule, model fit
  n (moles of quencher per moles of fluorophore): 0.46 ± 0.08
β-CN [2]
  Mitoxantrone loading per β-CN nanoparticle: 90-360 molecules MX per β-CN nanoparticle
  observed stoichiometric binding ratio: 2.2-3.3 moles of mitoxantrone per mole of protein
β-CN [2]; 1 mg/ml β-CN, from mitoxantrone and Trp 143 quenching and zeta potential
  optimal stoichiometric mitoxantrone loading: 2.2-4.0 moles of mitoxantrone per mole of β-CN
β-CN [2]; drug molecules per β-CN molecule, Trp quenching, model fit
  n (moles of quencher per moles of fluorophore): 3.28 ± 0.03
β-CN [2]; from DLS particle size, zeta potential and Trp quenching
  maximal mitoxantrone loading (mitoxantrone:β-CN): 6:1
β-CN [2]; from Trp quenching
  Calculated mitoxantrone:β-CN molar ratio: 3.28 ± 0.03
β-CN [2]; listed as Mitoxantrone
  observed stoichiometric binding ratio: 2.2-3.3 moles of mitoxantrone per mole
